# Taken from: PubChem BioAssay AID504764 (Drosophila RNAi Screening Center, 2011)
# Purpose: 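Genome-wide screen for regulators of Notch-driven gene expression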 (primary screen)
# Cells: Drosophila Kc167 cells
# Reagents: long dsRNA against Drosophila genes
# Duration: about 5 days (4 days dsRNA, then 24 h after transfection)
# Challenge: transfection of constitutively active membrane-tethered Notch lacking the extracellular domain, read 24 h later
# Measurement: 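Light from a Notch-responsive E(spl)m3 luciferase reporter under active Notch, with control-promoter and no-Notch reporter wells to normalise; raw counts from paired wells a and b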
# Reading the numbers: induced reporter light, run 1, well a and induced reporter light, run 1, well b: higher = more light from the Notch target reporter with active Notch; control promoter light, run 1, well a and control promoter light, run 1, well b: higher = more light from the viral control promoter (cell number, transfection, viability); uninduced reporter light, run 1, well a: higher = more light from the Notch target reporter without active Notch
# Hit rule: 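Wells with low control signal or poorly matching duplicates excluded; duplicates averaged; per source plate, z beyond ±2 for induced/control log2 ratio or beyond ±1.8 for induced/uninduced marks a hit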
# Calls: active = modifier hit (raised or lowered Notch signal); inactive = not a hit
# In all, the deposit lists about 22,000 reagents; shown is an unselected part of those with a known target gene and a result. Of all reagents, 403 (1.9%) got an active call. 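Unnormalised raw counts per well; ratio z-scores behind the hit calls and whether each hit raises or lowers signal are not deposited.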 A plus sign joins genes that one reagent is predicted to hit. The record does not give: the amount of reagent.
gene,DRSC id,"induced reporter light, run 1, well a","induced reporter light, run 1, well b","control promoter light, run 1, well a","control promoter light, run 1, well b","uninduced reporter light, run 1, well a",activity call
CG11635 + spaw,DRSC06075,1.85e5,1.39e5,2.26e5,1.95e5,15205,inactive
MED17 (Mediator complex subunit 17),DRSC16889,1.24e5,1.20e5,1.52e5,1.45e5,13082,active
aralar1,DRSC13987,55035,91370,1.08e5,1.22e5,9620,active
aralar1,DRSC16901,2.01e5,1.94e5,2.07e5,2.55e5,13095,inactive
MRG15 (MORF-related gene 15),DRSC16731,1.12e5,1.20e5,92830,89940,10160,inactive
wb (wing blister),DRSC01375,3725,3270,3665,3435,4045,inactive
wb (wing blister),DRSC03634,1.56e5,1.63e5,1.50e5,1.57e5,13170,inactive
STUB1 (STIP1 homology and U-box containing protein 1),DRSC03282,1.40e5,1.66e5,95820,80630,18635,inactive
Start1,DRSC04384,78245,92015,57635,74935,5225,inactive
dib (disembodied),DRSC08711,1.04e5,1.14e5,80245,29690,11410,inactive
CG17959,DRSC18142,1.00e5,99870,1.59e5,1.76e5,7255,inactive
Loxl2 (Lysyl oxidase-like 2),DRSC04469,1.29e5,1.29e5,1.02e5,1.19e5,9125,inactive
rhea,DRSC11300,1.60e5,1.53e5,1.71e5,1.31e5,8465,inactive
Alp9 (Alkaline phosphatase 9),DRSC10486,80710,1.03e5,1.07e5,34435,10645,inactive
CG31933,DRSC00457,1.22e5,1.26e5,1.10e5,78810,9565,inactive
CG3734,DRSC15509,1.92e5,1.61e5,2.27e5,2.21e5,14730,inactive
goe (gone early),DRSC19345,89210,68385,90680,73940,9732,inactive
CG15561,DRSC15100,1.40e5,1.23e5,1.45e5,1.43e5,9815,inactive
wda (will decrease acetylation),DRSC15579,1.23e5,1.50e5,1.81e5,1.92e5,11920,inactive
Debcl (Death executioner Bcl-2),DRSC04965,85580,74400,54230,73880,5850,inactive
Ir7b (Ionotropic receptor 7b),DRSC18009,1.29e5,1.67e5,2.87e5,2.72e5,12528,inactive
CG13337,DRSC06371,1.09e5,1.12e5,1.47e5,1.38e5,8892,inactive
Pif1A (PFTAIRE-interacting factor 1A),DRSC12708,1.32e5,1.47e5,1.27e5,1.58e5,11442,inactive
Pif1A (PFTAIRE-interacting factor 1A),DRSC14383,92040,72320,86330,60285,6500,inactive
Stoml2 (Stomatin like 2),DRSC04326,2.12e5,2.42e5,2.14e5,2.15e5,17345,inactive
CG2871,DRSC18230,1.44e5,1.55e5,2.78e5,2.67e5,11745,inactive
CG2871,DRSC21719,,,,,,inactive
mRpS7 (mitochondrial ribosomal protein S7),DRSC02814,2.94e5,2.68e5,2.90e5,3.04e5,21360,inactive
Hsp110 (Heat shock protein 110),DRSC11186,1.10e5,97215,1.06e5,1.25e5,7910,inactive
CG10347,DRSC19352,1.35e5,1.59e5,3.19e5,2.56e5,11340,inactive
wuho,DRSC18101,1.77e5,1.74e5,3.24e5,2.92e5,10428,inactive
GstE9 (Glutathione S transferase E9),DRSC06679,1.24e5,95235,1.36e5,1.53e5,9485,inactive
CG5188,DRSC02826,1.17e5,1.28e5,68195,1.04e5,18995,inactive
ppk19 (pickpocket 19),DRSC15321,16215,11525,17815,14438,1050,inactive

Entries listed so far with an active call:
gene,DRSC id,"induced reporter light, run 1, well a","induced reporter light, run 1, well b","control promoter light, run 1, well a","control promoter light, run 1, well b","uninduced reporter light, run 1, well a",activity call
MED17 (Mediator complex subunit 17),DRSC16889,1.24e5,1.20e5,1.52e5,1.45e5,13082,active
aralar1,DRSC13987,55035,91370,1.08e5,1.22e5,9620,active
